Consider one molecule from PMC12533153.

This test addresses T1, Syndecan-4 (SDC4), mouse, 3FLAG-tagged (mouse) (UniProt O35988).
T1 sequence: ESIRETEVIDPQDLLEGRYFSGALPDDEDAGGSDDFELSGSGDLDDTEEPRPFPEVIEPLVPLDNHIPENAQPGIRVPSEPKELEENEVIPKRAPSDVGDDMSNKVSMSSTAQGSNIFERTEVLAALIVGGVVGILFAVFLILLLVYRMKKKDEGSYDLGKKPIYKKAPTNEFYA
In words: co-IP; beta-TC-6 cells lysed in RIPA lysis buffer (50 mM Tris-Base, 150 mM NaCl, 5 mM EDTA, 1% NP-40, 0.1% SDS, pH 7.4); lysate incubated with Anti-Flag Affinity Gel overnight at 4 °C; washed six times with RIPA; western blotting. On the technique in general: A western blot detects proteins with antibodies after separation by electrophoresis.

Results are given in words; binding and its absence hold for the method and conditions named. In cells and extracts the contact can be indirect. Some binding calls cover weakened binding; strength is not graded here. Tags and fused reporters may be left off the sequences shown.

B1: Midkine (MDK) (ligand, UniProt P12025 23-140)
chain: KKKEKVKKGSECSEWTWGPCTPSSKDCGMGFREGTCGAQTQRVHCKVPCNWKKEFGADCKYKFESWGACDGSTGTKARQGTLKKARYNAQCQETIRVTKPCTSKTKSKTKAKKGKGKD
On to B1, for which the binding result was “binds”.
